Reference: paper PMC9943068
Numbering of substitutions follows the chain as printed. No constants are given. Whether binding was seen depends on the method and setting. Binding seen in cells or lysates may run through a third protein. Some binding calls cover weakened binding; strength is not graded here. Where a sequence is shown, tags or fusion partners need not be part of it.

Sequences of proteins named here, by UniProt entry; tags and fusion partners are left off.
UniProt P18248: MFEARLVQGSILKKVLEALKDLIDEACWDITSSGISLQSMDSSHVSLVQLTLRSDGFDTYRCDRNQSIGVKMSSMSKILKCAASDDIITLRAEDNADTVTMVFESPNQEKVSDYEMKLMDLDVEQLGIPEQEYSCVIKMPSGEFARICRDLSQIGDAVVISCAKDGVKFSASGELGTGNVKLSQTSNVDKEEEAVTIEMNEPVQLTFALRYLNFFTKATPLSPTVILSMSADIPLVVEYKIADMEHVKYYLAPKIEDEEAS

Experiments:
[1] = molecular target: T1, GST-PAF15 wild-type (Xenopus PAF15) (Xenopus) (UniProt Q5HZL4); experiment: pull-down; GST or GST-PAF15 proteins immobilized on Glutathione Sepharose 4B, incubated with interphase egg extracts 2 hr at 4°C; washed with CPB, 2% sucrose, 0.1% Triton X-100; immunoblotting; only the target purified
T1 sequence: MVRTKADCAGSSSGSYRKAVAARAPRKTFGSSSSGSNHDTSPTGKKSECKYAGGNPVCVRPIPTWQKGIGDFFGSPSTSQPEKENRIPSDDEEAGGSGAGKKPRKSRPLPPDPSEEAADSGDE

[2] = molecular target: T2, GST-PAF15 triple mutant (SAKA) (Xenopus) (UniProt Q5HZL4); experiment: as above
T2 sequence: T1 sequence with S79A, S97A, K101A, K105A

binding [1]: binds
binding [2]: binds
Substance: PCNA (proliferating cell nuclear antigen), endogenous Xenopus (from UniProt P18248 1-261)
